From PMC6155142, “OCP–FRP protein complex topologies suggest a mechanism for controlling high light tolerance in cyanobacteria” (Nature Communications, 2018) come the findings set out here.

In test [1] the target is T1, OCP^Y201A/W288A, constantly active mutant of Synechocystis orange carotenoid protein (Synechocystis sp. PCC 6803) (UniProt P74102).
T1 sequence: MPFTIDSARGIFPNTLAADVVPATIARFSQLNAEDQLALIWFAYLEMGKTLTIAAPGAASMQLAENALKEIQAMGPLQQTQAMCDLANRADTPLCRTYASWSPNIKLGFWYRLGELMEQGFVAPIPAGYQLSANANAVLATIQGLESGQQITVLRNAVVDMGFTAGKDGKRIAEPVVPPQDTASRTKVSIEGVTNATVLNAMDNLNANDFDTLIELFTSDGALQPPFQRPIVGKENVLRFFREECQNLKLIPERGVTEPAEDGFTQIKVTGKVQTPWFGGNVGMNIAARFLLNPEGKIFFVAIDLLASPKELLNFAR
Briefly: SEC; redFRPcc or FRP-L49E (50 µM) pre-incubated with OCP^AA (37 µM), ∆NTE^O (6 µM) or COCP (8 µM); Superdex 200 Increase 10/300; 280 nm and carotenoid-specific absorbance; both purified. Background: Size exclusion chromatography separates by hydrodynamic size, large species first.

The target in test [2] is T2, ∆NTE^O, orange form of Synechocystis OCP lacking the N-terminal extension (residues 1–20) (Synechocystis sp. PCC 6803) (UniProt P74102).
T2 sequence: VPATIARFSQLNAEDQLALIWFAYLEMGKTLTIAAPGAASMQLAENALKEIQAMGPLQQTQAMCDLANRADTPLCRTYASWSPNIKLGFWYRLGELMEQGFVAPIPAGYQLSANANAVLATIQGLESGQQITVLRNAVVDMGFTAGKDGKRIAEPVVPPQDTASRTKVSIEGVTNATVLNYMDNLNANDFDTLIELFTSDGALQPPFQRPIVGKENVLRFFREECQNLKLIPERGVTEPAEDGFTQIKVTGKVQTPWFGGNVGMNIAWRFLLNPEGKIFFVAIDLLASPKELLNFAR
Described as above.

Substrate in test [3]: T3, COCP, individual C-terminal domain of Synechocystis OCP (amino acids 165–317) (Synechocystis sp. PCC 6803) (UniProt P74102)
T3 sequence: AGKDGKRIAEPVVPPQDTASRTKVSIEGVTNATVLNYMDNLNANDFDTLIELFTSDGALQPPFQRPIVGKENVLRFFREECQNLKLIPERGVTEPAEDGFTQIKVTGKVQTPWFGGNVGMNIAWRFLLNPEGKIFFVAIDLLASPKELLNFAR
The description is as above.

For test [4], the target named is T1, OCP^Y201A/W288A, constantly active mutant of Synechocystis orange carotenoid protein (Synechocystis sp. PCC 6803). The experiment in a line: SEC; oxFRPcc mixed with OCP^AA, COCP or ∆NTE^P (Supplementary Figs 4 and 5); 280 nm and carotenoid-specific absorbance; both purified.
The target in test [5] is T4, ∆NTE^P, purple form of Synechocystis OCP lacking the N-terminal extension (residues 1–20) (Synechocystis sp. PCC 6803) (UniProt P74102).
T4 sequence: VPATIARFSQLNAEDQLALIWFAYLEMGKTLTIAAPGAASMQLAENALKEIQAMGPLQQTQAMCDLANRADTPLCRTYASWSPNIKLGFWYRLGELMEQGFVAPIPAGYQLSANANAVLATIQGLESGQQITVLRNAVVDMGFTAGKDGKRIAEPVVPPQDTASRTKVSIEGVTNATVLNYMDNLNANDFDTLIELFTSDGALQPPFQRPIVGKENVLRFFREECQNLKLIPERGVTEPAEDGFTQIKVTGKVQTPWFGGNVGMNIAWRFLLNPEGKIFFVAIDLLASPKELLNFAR
The description is as above.

Substrate in test [6]: T3, 
The description is as above.

Test [7] addresses T1, OCP^Y201A/W288A, constantly active mutant of Synechocystis orange carotenoid protein (Synechocystis sp. PCC 6803). Briefly: cross-linking + SEC; kinetics of crosslinking of OCP^AA or ∆NTE^O mixtures with oxFRPcc by 0.1–0.3% glutaraldehyde at room temperature; 30 µl aliquots on Superdex 200 Increase 5/150; both purified.
Test [8] concerns the target T2, ∆NTE^O, orange form of Synechocystis OCP lacking the N-terminal extension (residues 1–20) (Synechocystis sp. PCC 6803). The experiment in a line: SEC; fixed low concentration of ∆NTE^O titrated with oxFRPcc or FRPwt (µM per dimer), 100 µl samples, Superdex 200 Increase 10/300, no reducing agents; amplitude of the complex peak fitted with the quadratic equation; apparent Kd; both purified.

Test [9] shares this target. The experiment in a line: SAXS; ∆NTE^O alone, curves at 0.4 and 3.11 mg ml^−1 merged; batch mode, 10 °C, SEC buffer with 3% glycerol and 2 mM DTT; both purified.

Results are given in words; binding and its absence hold for the method and conditions named. Some binding calls cover weakened binding; strength is not graded here.

B1: FRP-L49E, monomeric mutant of Synechocystis FRP (protein, UniProt P74103 1-109)
chain: MLQTAEAPWSQAETQSAHALFRKAYQRELDGLLATVQAQASQITQIDDEWKLHDFLSAKRHEIDGKYDDRQSVIIFVFAQLLKEGLVQAEELTFLAADKQSKIKALARL
With B1, the binding entry is given as “no binding (tested: 50 µM FRP-L49E, 37 µM OCP^AA)” in [1]; “binds weakly” in [2]; “no binding (tested: 50 µM FRP-L49E, 8 µM COCP)” in test [3].

B2: oxidized FRPcc (L33C/I43C mutant of Synechocystis FRP), disulfide-trapped dimer (natural protein, UniProt P74103 1-109, looked up)
chain: MLQTAEAPWSQAETQSAHALFRKAYQRELDGLCATVQAQASQCTQIDDLWKLHDFLSAKRHEIDGKYDDRQSVIIFVFAQLLKEGLVQAEELTFLAADKQSKIKALARL
modifications: intersubunit disulfide bridges between C33 and C43
notes: fluorescence recovery protein (FRP) of Synechocystis, residues 1–109, with L33C and I43C; made from the His6-tagged wild-type template; Same polypeptide as m3, but covalently fixed as a dimer that cannot monomerize; 22 N-terminal residues of the construct are absent from 4JDX; also called oxFRPcc; oxFRPcc dimer; source: E. coli T7 SHuffle express, purified in the absence of reducing agents, …
On to B2, for which the binding result in test [4], in [5], in test [6], in test [7] and in [8] was “binds” in each case.

B3: ∆NTE^O, orange form of Synechocystis OCP lacking the N-terminal extension (residues 1–20) (domain or fragment)
chain: VPATIARFSQLNAEDQLALIWFAYLEMGKTLTIAAPGAASMQLAENALKEIQAMGPLQQTQAMCDLANRADTPLCRTYASWSPNIKLGFWYRLGELMEQGFVAPIPAGYQLSANANAVLATIQGLESGQQITVLRNAVVDMGFTAGKDGKRIAEPVVPPQDTASRTKVSIEGVTNATVLNYMDNLNANDFDTLIELFTSDGALQPPFQRPIVGKENVLRFFREECQNLKLIPERGVTEPAEDGFTQIKVTGKVQTPWFGGNVGMNIAWRFLLNPEGKIFFVAIDLLASPKELLNFAR
Consider B3, for which the binding entry in test [9] is given as “no binding (tested: 0.4, 3.1 (merged) mg ml^−1)”.
